# PubChem BioAssay AID540256 (National Center for Advancing Translational Sciences (NCATS), 2011)
# In all, about 300,000 compounds went through this assay and about 3,700 (1.2%) were called active. Inconclusive means that the source gave no clear call. Such entries were picked first, then a sample of the others. Calls come from the whole dose curve; tested in HEK293 cells. Potencies of inconclusive entries are doubtful fits and often do not repeat.
# Experiment: qHTS for Inhibitors of binding or entry into cells for Lassa Virus; note: nearly all actives have a fitted effect of over 50% in size
# Details: Lassa virus pseudotype entry inhibition, cell reporter; activity change, negative = inhibition: at 37.9 µM (top of the series) unless noted
# % is set by controls: 0 for no effect and ±100 for the full control effect; potency is the fitted concentration of half-maximal effect.
Structure (SMILES),Potency,"activity change, negative = inhibition"
Cc1ccc(N2CC(C(=O)N3CCC4(CC3)CC(=O)c3ccccc3O4)CC2=O)cc1C (stereo unspecified),"inconclusive: 35.5 µM [inhibitor, partial curve, poor fit]",–
O=C(NNc1c(Cl)cc(Cl)cc1Cl)C1CCC1,–,inactive: -1.25%
COc1ccc(N2C(=O)NC3CC2(C)Oc2ccc(Cl)cc23)cc1OC (stereo unspecified),"inconclusive: 35.5 µM [inhibitor, single point]",–
O=C(CSc1nc(C(F)(F)F)cc(=O)[nH]1)N1CCCC1,"inconclusive: 11.2 µM [activator, single point]",–
COc1ccc(-c2onc(C)c2C)cc1S(=O)(=O)NC1CCC(C)CC1 (stereo unspecified),"inconclusive: 6.31 µM [activator, single point]",–
O=C(NCC12CC3CC(CC(C3)C1)C2)c1cc2nc(-c3ccc(F)cc3)cc(C(F)(F)F)n2n1,–,inactive: 24.7% [at 46.1 µM]
CNC(=O)COc1ccc(Nc2nnc(-c3ccc(C)c(S(=O)(=O)NC(C)(C)C)c3)c3ccccc23)cc1,"inconclusive: 7.94 µM [inhibitor, partial curve, poor fit]",–
CCOc1cc(C2c3c(-c4ccccc4O)n[nH]c3C(=O)N2CCc2ccccc2)ccc1O (stereo unspecified),"inconclusive: 1.26 µM [inhibitor, full curve]",–
COc1ccccc1-n1c(C)c(C(C)=O)c2cc(O)ccc21,"inconclusive: 0.891 µM [inhibitor, partial curve, poor fit]",–
COc1ccccc1NC(=S)NNC(=O)c1ccc(Cl)cc1Cl,–,inactive: 10.1%
Cc1ccc(C(=O)COC(=O)CCC(=O)Nc2ccc(Oc3ccccc3)cc2)cc1C,–,inactive: 13% [at 46.1 µM]
O=C(CSc1nnc(Nc2ccccc2F)s1)Nc1cccc(S(=O)(=O)N2CCCCC2)c1,"inconclusive: 23.1 µM [inhibitor, single point]",–
CCCC(=O)N1CCN(c2ccc(NC(=S)NC(=O)c3cccc(C)c3)cc2)CC1,"inconclusive: 22.4 µM [inhibitor, partial curve, poor fit]",–
COc1ccc(/C=C/C(=O)Nc2ccc3c(c2)OCCO3)cc1OC,"inconclusive: 32.6 µM [inhibitor, single point]",–
O=C(CSc1ccccc1)N1CCN(c2ccccc2)CC1,"inconclusive: 5.62 µM [activator, partial curve, poor fit]",–
O=C1CCc2cc(S(=O)(=O)NC(Cc3ccccc3)C(=O)N3CCN(c4ccccn4)CC3)ccc2N1 (stereo unspecified),"inconclusive: 32.6 µM [activator, partial curve, poor fit]",–
Cc1cccc(C(=O)NNC(=O)C(=O)NC(C)(C)C)c1,–,inactive: 2.65%
N#Cc1ccc(OCC(O)CS(=O)(=O)c2ccc(F)cc2)cc1 (stereo unspecified),–,inactive: 7.71%
Clc1cccc(Cl)c1CON/C=N/c1ncnc2sccc12,"inconclusive: 22.4 µM [inhibitor, partial curve, poor fit]",–
COc1ccc(OCC(=O)Nc2cccc(C(C)=O)c2)cc1,–,inactive: 21.5%
Fc1ccc2nncc(SCc3ccccc3Cl)c2c1,–,inactive: 16.2% [at 46.1 µM]
COc1ccc(C(=O)c2ccc(N3CCOCC3)cc2)c(OC)c1,"inconclusive: 0.517 µM [activator, single point]",–
COc1ccc2nc(NC3=NCCC3)sc2c1,–,inactive: -4.9%

# One compound at a time, as listed above:
# O=C(CSc1ccccc1)N1CCN(c2ccccc2)CC1 reads Potency: inconclusive: 5.62 µM [activator, partial curve, poor fit]
# O=C(CSc1nnc(Nc2ccccc2F)s1)Nc1cccc(S(=O)(=O)N2CCCCC2)c1 reads Potency: inconclusive: 23.1 µM [inhibitor, single point]
# COc1ccc(N2C(=O)NC3CC2(C)Oc2ccc(Cl)cc23)cc1OC (stereo unspecified) reads Potency: inconclusive: 35.5 µM [inhibitor, single point]
# Cc1ccc(N2CC(C(=O)N3CCC4(CC3)CC(=O)c3ccccc3O4)CC2=O)cc1C (stereo unspecified) reads Potency: inconclusive: 35.5 µM [inhibitor, partial curve, poor fit]

# (further entries)

Structure (SMILES),Potency,"activity change, negative = inhibition"
Cc1cc(/C=N/NC(N)=S)c(C)n1-c1ccc(Cl)c(Cl)c1,"inconclusive: 8.91 µM [inhibitor, partial curve, poor fit]",–
O=C(Nc1nnc(-c2ccc(F)cc2)s1)c1ccco1,–,inactive: 4.54% [at 46.1 µM]
O=C(N/N=C\c1cccc(OC(=O)c2ccco2)c1)c1ccc2c(c1)OCO2,active: 14.6 µM,–
COc1ccc(CCC(=O)Nc2sccc2C#N)cc1,–,inactive: 20.8% [at 46.1 µM]
CCCCn1c(N)c(Sc2ccc(Cl)cc2)c(=O)[nH]c1=O,"inconclusive: 0.184 µM [inhibitor, full curve, poor fit]",–
CCn1ncc(/C=C/C(=O)NCc2cn(C)nc2C)c1C,–,inactive: 10.1%
O=c1[nH]c(=S)n(-c2ccc(Cl)cc2)c(O)c1/C=N/N1CCOCC1,"inconclusive: 12.6 µM [activator, partial curve, poor fit]",–
O=C(C1CCC(CNS(=O)(=O)c2cccs2)CC1)N1CCN(c2ccc(F)cc2)CC1 (stereo unspecified),"inconclusive: 31.6 µM [inhibitor, partial curve, poor fit]",–
CCOC(=O)c1c(NC(=S)NC(C)=O)sc(C)c1C,"inconclusive: 6.31 µM [activator, single point]",–
COC(=O)c1cc(C(=O)Nc2ccc(S(=O)(=O)NC(C)(C)C)cc2)cc([N+](=O)[O-])c1,"inconclusive: 14.1 µM [inhibitor, single point]",–
Cc1ccc2nc(SCc3ccc([N+](=O)[O-])cc3)[nH]c2c1,–,inactive: 6.43%
COc1ccc2c(C)c(CCC(=O)NCCc3ccc(Cl)cc3)c(=O)oc2c1,–,inactive: -24.4% [at 46.1 µM]
COc1ccc(NC(=S)N(CCc2c(C)[nH]c3ccccc23)Cc2cccnc2)cc1,"inconclusive: 29.1 µM [inhibitor, single point]",–
CCCn1nnnc1SCC(=O)c1ccc(NC(C)=O)cc1,–,inactive: 0.0723%
Cc1ccc(Cl)cc1N1CCN(C(=O)c2ccc(C)c(-n3c(C)nc4cccnc43)c2)CC1,"inconclusive: 35.5 µM [inhibitor, single point]",–
CCc1nc2ccc(C(=O)N3CCN(c4ccc(Cl)cc4)CC3)cc2nc1CC,"inconclusive: 2.82 µM [activator, full curve]",–
CCOc1ccc(Br)cc1CC(=O)O,–,inactive: 2.42%
CC(=O)c1cnc2cc(-c3cccc(Br)c3)nn2c1C,–,inactive: 9.51% [at 46.1 µM]
Cc1ccccc1N=C1SC(CC(=O)Nc2ccc3ccccc3c2)C(=O)N1Cc1ccccn1 (stereo unspecified),active: 16.4 µM,–
CCc1cccc(CC)c1NC(=O)COc1ccccc1C(=O)c1cc(C#N)c(=O)n(C2CCCCC2)c1,"inconclusive: 11.2 µM [inhibitor, single point]",–
Cc1cc(NC(=O)C2CCCC2)nc2c1c(=O)oc1ccccc12,"inconclusive: 35.5 µM [inhibitor, single point]",–
COCc1cc(C)nc2oc(C(=O)c3ccccc3)c(N)c12,"inconclusive: 1.26 µM [inhibitor, single point]",–
COc1ccc(CNC(=O)Cn2c(=O)oc3cc(S(=O)(=O)N4CCCC4)ccc32)cc1,"inconclusive: 12.6 µM [inhibitor, partial curve, poor fit]",–
